Reference: patent US20240109941A1 (University of California, published 2024)
“Also recorded” adds a separate entry of the source. Like-named read-outs stand apart in the source and are kept apart here.

B1: CghSAMPa (full length stable antimicrobial peptide) (peptide)
chain: MCCNRGKNVSIENLHQGFTHIFESTFESTEGVAEYVSHPSHVEYANLFLANLEKVLVIDYKPTTVRV
notes: In the native gel it ran as polymers, 'likely hexamers based on the molecular weight'; also called MaSSAMP; Syd72SSAMP1

Conditions: native PAGE

Row | Molecule | polymer (hexamer) formation in native gel (listed as MaSSAMP-helix2) | polymer (hexamer) formation in native gel (listed as MaSSAMP)
1 | SHVEYANLFLANLEKVLVIDYK [CghSAMPa helix 2, polypeptide containing CghSAMPa helix 2] | polymers (again, likely hexamers based on the molecular weight) were detected; also recorded: formed hexamers in the native gel | 
2 | B1 |  | polymers (likely hexamers based on the molecular weight) were detected in a native gel; also recorded: formed hexamers in the native gel
